Experimental data as given in article PMC12183826, “Structure-based design and evaluation of tyrosinase inhibitors targeting both human and mushroom isozymes” (RSC Medicinal Chemistry, 2025).

Experiment: In vitro sun protection factor by UV spectrophotometry
Format: physicochemical
Conditions: UV absorbance 290–320 nm, Mansur equation

SMILES | SPF
O=C(c1ccc(=O)[nH]c1)N1CCN(c2ccc(O)cc2)CC1 [Compound 2, 5-[4-(4-hydroxyphenyl)piperazine-1-carbonyl]pyridin-2(1H)-one] | 7.36 ± 0.02^a
CC(=O)N1CCN(c2ccc(O)cc2)CC1 [Compound 3, 1-[4-(4-hydroxyphenyl)piperazin-1-yl]ethan-1-one] | 1.62 ± 0.10^b

Marks after values point to notes of the source that are not given here.
